± gives the standard deviation of the averaged measurements. The list shows a part of the results, in another mix than the full data.
What was measured:
Test in all cases: NP40-soluble protein abundance relative to vehicle (solubility fold change) (ratio); higher = more soluble protein in presence of AMP-PNP
[1] = molecular target: T1, E9PP16 and related entries (UniProt Q8ND30)
T1 sequence (whole entry): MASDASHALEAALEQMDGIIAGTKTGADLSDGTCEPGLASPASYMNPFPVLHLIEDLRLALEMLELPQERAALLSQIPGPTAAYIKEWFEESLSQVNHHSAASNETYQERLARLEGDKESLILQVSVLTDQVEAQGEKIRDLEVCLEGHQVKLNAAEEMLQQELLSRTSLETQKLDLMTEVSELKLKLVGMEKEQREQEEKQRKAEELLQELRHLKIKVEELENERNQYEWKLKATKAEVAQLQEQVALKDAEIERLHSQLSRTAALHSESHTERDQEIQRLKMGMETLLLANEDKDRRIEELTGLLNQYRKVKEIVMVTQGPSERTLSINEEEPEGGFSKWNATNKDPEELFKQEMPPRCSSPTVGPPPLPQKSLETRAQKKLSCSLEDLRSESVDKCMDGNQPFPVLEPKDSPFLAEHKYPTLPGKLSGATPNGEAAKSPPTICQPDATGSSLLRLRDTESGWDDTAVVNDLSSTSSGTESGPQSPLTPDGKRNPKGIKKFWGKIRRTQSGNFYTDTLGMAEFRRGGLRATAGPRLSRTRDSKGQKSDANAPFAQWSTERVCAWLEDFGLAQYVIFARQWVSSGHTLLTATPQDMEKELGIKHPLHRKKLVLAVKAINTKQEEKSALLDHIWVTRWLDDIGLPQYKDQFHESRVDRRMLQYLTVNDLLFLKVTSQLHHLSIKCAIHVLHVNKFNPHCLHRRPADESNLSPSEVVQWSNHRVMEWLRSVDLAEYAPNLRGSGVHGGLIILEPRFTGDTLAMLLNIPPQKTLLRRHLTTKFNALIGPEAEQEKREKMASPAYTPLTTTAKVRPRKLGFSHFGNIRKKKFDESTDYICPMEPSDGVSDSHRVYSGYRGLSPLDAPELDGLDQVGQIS
Outline: (§1)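 Jurkat crude lysate prepared with a Dounce homogeniser was treated at eight concentrations spanning 0.1 to 10 mM, 10 min at room temperature then 3 min at 37 °C. Solubilisation with 0.8% NP40 and benzonase and ultracentrifugation preceded TMT labelling of the supernatant for LC-MS/MS. Fold change against the detergent-processed vehicle was determined per replicate from vsn-normalised intensities, across three independent experiments.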

[2] = molecular target: T2, F5GZS6 and related entries (UniProt P08195)
T2 sequence (whole entry): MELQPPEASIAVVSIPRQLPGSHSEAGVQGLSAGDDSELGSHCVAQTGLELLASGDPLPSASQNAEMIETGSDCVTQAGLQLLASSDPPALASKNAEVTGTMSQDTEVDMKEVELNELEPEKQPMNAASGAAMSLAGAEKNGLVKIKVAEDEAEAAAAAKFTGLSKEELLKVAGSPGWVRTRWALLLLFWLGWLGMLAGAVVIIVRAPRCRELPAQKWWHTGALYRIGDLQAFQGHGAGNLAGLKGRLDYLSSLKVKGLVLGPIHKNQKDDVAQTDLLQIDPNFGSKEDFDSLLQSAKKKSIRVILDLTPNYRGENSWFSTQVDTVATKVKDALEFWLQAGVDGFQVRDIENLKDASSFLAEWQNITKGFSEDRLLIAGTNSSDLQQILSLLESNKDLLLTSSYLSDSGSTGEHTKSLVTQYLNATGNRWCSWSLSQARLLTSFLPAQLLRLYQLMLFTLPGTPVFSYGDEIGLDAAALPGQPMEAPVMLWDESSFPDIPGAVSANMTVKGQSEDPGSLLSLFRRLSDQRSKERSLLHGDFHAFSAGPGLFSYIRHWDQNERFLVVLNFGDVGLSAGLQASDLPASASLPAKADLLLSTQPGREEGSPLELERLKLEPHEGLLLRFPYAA
Outline: as §1

[3] = molecular target: T3, F5H2B9 and related entries (UniProt Q9BZF9)
T3 sequence (whole entry): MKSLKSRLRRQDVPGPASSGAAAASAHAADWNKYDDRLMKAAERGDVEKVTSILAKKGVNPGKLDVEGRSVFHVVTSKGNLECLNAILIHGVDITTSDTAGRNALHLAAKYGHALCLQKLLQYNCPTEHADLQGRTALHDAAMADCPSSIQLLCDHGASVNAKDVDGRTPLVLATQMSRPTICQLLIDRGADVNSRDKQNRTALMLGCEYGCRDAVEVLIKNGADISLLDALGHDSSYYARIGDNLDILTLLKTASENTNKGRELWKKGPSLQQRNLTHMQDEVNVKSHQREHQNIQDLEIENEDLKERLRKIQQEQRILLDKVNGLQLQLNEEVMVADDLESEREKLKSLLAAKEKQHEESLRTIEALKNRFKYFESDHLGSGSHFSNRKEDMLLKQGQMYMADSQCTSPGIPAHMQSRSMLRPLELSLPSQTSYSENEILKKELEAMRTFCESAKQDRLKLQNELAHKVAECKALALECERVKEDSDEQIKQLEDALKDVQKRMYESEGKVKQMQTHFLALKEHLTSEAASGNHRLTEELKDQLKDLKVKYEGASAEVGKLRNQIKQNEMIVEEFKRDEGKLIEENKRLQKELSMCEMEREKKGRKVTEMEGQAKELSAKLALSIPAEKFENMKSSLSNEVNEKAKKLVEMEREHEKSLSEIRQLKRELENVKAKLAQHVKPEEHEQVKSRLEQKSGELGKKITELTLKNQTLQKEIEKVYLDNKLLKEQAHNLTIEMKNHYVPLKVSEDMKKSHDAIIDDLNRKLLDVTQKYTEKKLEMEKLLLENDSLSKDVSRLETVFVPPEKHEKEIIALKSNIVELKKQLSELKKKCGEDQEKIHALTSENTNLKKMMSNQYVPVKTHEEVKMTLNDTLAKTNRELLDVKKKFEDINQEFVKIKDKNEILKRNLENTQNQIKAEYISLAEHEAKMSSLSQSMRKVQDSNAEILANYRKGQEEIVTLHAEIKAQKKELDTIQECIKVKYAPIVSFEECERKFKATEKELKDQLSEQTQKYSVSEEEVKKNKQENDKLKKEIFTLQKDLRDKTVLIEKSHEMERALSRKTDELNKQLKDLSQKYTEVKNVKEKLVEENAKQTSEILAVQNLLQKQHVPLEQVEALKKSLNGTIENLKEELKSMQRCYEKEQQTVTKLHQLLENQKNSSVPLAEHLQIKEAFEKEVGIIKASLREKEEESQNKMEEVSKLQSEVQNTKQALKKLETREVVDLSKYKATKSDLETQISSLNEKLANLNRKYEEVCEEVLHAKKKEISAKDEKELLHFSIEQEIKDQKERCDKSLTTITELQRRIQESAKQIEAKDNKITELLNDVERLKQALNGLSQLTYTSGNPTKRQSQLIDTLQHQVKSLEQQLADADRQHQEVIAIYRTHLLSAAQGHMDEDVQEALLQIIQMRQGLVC
Outline: as §1

[4] = molecular target: T4, F8VXK3 and related entries (UniProt Q9NPF2)
T4 sequence (whole entry): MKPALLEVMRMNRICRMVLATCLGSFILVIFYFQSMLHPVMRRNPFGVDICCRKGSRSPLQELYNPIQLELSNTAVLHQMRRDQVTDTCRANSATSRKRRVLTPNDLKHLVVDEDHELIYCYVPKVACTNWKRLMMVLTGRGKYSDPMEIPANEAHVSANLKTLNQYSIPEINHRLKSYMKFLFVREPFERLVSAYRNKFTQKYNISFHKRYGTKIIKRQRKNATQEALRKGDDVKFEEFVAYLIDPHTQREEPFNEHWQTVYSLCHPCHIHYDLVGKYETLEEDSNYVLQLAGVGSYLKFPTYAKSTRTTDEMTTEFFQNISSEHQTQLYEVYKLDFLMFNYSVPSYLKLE
Outline: as §1

`Nc1ncnc2c1ncn2[C@@H]1O[C@H](COP(=O)(O)OP(=O)(O)NP(=O)(O)O)[C@@H](O)[C@H]1O` [adenylyl imidodiphosphate] was tested. Which NP40-soluble protein abundance ([1]; concentration: 8mM) did it give?
The NP40-soluble protein abundance was 1.01 ± 0.022.

What about the NP40-soluble protein abundance ([1]; concentration: 10mM) of the same compound?
The NP40-soluble protein abundance was 1.034 ± 0.0043.

And the NP40-soluble protein abundance ([2]; concentration: 1mM)?
Its NP40-soluble protein abundance is 0.988 ± 0.045.

And the NP40-soluble protein abundance ([2]; concentration: 2mM)?
Its NP40-soluble protein abundance is 1.01 ± 0.11.

And the NP40-soluble protein abundance ([2]; concentration: 4mM)?
The NP40-soluble protein abundance was 0.992 ± 0.061.

What about the NP40-soluble protein abundance ([2]; concentration: 6mM) of the same compound?
The NP40-soluble protein abundance was 1.04 ± 0.086.

What about the NP40-soluble protein abundance ([2]; concentration: 8mM) of the same compound?
Its NP40-soluble protein abundance is 1.03 ± 0.081.

And the NP40-soluble protein abundance ([2]; concentration: 10mM)?
The NP40-soluble protein abundance was 1.04 ± 0.071.

And the NP40-soluble protein abundance ([3]; concentration: 1mM)?
The NP40-soluble protein abundance was 1.04 ± 0.032.

And the NP40-soluble protein abundance ([3]; concentration: 2mM)?
The NP40-soluble protein abundance was 1.06 ± 0.053.

What about the NP40-soluble protein abundance ([3]; concentration: 4mM) of the same compound?
The NP40-soluble protein abundance was 1.05 ± 0.025.

And the NP40-soluble protein abundance ([3]; concentration: 6mM)?
The NP40-soluble protein abundance was 0.986 ± 0.03.

What about the NP40-soluble protein abundance ([3]; concentration: 8mM) of the same compound?
Its NP40-soluble protein abundance is 0.977 ± 0.04.

And the NP40-soluble protein abundance ([3]; concentration: 10mM)?
Its NP40-soluble protein abundance is 1.008 ± 0.0053.

What about the NP40-soluble protein abundance ([4]; concentration: 1mM) of the same compound?
Its NP40-soluble protein abundance is 0.9969 ± 0.0033.

And the NP40-soluble protein abundance ([4]; concentration: 2mM)?
Its NP40-soluble protein abundance is 0.993 ± 0.044.

And the NP40-soluble protein abundance ([4]; concentration: 4mM)?
Its NP40-soluble protein abundance is 1.01 ± 0.011.

What about the NP40-soluble protein abundance ([4]; concentration: 6mM) of the same compound?
The NP40-soluble protein abundance was 1.01 ± 0.012.

And the NP40-soluble protein abundance ([4]; concentration: 8mM)?
The NP40-soluble protein abundance was 0.992 ± 0.04.

What about the NP40-soluble protein abundance ([4]; concentration: 10mM) of the same compound?
The NP40-soluble protein abundance was 1.017 ± 0.0081.
